The text below walks through data of paper doi:10.1101/2023.04.29.538809.

Sequences of proteins named here, by UniProt entry; tags and fusion partners are left off.
UniProt Q5THK1, whole entry: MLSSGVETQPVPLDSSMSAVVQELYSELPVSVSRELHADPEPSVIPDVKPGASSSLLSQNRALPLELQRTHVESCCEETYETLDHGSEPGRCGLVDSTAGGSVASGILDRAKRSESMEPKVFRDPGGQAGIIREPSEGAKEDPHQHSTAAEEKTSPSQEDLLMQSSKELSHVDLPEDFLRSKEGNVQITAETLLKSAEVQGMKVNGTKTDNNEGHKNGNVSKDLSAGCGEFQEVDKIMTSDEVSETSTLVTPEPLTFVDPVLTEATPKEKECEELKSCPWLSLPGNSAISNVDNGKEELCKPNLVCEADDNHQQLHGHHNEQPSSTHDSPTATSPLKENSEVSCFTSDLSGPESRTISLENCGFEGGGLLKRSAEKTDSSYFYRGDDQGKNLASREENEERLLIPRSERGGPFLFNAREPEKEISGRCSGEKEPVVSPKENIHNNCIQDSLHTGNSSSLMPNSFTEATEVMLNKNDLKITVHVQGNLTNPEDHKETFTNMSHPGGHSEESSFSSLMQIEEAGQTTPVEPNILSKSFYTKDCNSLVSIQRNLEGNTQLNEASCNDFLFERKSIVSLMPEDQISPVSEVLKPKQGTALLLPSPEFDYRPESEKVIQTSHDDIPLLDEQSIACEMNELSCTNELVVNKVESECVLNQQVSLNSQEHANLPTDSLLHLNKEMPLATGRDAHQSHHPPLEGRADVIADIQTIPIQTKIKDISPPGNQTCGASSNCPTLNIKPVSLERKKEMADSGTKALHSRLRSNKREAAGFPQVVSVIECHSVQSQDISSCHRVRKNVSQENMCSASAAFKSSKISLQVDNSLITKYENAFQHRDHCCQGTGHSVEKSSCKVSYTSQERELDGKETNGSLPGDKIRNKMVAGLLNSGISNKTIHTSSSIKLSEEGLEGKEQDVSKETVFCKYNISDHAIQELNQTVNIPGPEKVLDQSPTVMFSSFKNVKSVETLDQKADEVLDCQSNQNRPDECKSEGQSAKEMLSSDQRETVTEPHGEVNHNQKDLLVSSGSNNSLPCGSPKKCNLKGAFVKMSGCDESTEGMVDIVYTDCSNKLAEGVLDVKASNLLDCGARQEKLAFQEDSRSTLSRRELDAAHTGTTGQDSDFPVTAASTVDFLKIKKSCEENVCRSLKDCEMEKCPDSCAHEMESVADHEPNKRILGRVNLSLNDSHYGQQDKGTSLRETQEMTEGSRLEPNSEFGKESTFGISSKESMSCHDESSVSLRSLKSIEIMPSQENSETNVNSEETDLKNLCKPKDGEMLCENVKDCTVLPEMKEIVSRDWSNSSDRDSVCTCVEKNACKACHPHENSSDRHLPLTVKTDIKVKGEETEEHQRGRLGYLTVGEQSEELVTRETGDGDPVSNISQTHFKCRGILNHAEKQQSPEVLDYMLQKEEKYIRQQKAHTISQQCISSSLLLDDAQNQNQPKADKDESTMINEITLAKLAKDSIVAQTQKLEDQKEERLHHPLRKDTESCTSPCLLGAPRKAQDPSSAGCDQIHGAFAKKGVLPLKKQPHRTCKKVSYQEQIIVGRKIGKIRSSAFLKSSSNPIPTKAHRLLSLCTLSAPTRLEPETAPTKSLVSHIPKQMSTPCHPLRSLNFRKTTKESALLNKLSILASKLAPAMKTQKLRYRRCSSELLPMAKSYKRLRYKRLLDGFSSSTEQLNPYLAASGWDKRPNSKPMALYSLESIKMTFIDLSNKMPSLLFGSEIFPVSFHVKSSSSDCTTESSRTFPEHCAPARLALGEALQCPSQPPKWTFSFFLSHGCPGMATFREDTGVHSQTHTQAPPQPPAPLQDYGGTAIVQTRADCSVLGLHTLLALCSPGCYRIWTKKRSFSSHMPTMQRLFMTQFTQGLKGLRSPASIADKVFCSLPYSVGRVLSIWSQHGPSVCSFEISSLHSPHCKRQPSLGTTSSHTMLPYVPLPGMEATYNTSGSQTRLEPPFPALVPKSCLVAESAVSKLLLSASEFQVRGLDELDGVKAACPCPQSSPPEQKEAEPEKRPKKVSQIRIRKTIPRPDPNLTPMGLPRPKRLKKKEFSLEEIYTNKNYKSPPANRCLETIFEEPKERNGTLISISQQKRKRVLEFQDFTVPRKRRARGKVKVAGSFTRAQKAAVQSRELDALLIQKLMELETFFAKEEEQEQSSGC

In the assay the target is C-terminal Myc-FLAG tagged PRR14L (human), Q5THK1. As to the kind of experiment: co-IP. The following applies: remark: other sources report otherwise.

No constants are given. Whether binding was seen depends on the method and setting. Binding seen in cells or lysates may run through a third protein. Some binding calls cover weakened binding; strength is not graded here. Sequences can lack the tags named with a protein.

B1: HA-tagged BAP1, Q92560 1-729 (protein)
chain: MNKGWLELESDPGLFTLLVEDFGVKGVQVEEIYDLQSKCQGPVYGFIFLFKWIEERRSRRKVSTLVDDTSVIDDDIVNNMFFAHQLIPNSCATHALLSVLLNCSSVDLGPTLSRMKDFTKGFSPESKGYAIGNAPELAKAHNSHARPEPRHLPEKQNGLSAVRTMEAFHFVSYVPITGRLFELDGLKVYPIDHGPWGEDEEWTDKARRVIMERIGLATAGEPYHDIRFNLMAVVPDRRIKYEARLHVLKVNRQTVLEALQQLIRVTQPELIQTHKSQESQLPEESKSASNKSPLVLEANRAPAASEGNHTDGAEEAAGSCAQAPSHSPPNKPKLVVKPPGSSLNGVHPNPTPIVQRLPAFLDNHNYAKSPMQEEEDLAAGVGRSRVPVRPPQQYSDDEDDYEDDEEDDVQNTNSALRYKGKGTGKPGALSGSADGQLSVLQPNTINVLAEKLKESQKDLSIPLSIKTSSGAGSPAVAVPTHSQPSPTPSNESTDTASEIGSAFNSPLRSPIRSANPTRPSSPVTSHISKVLFGEDDSLLRVDCIRYNRAVRDLGPVISTGLLHLAEDGVLSPLALTEGGKGSSPSIRPIQGSQGSSSPVEKEVVEATDSREKTGMVRPGEPLSGEKYSPKELLALLKCVEAEIANYEACLKEEVEKRKKFKIDDQRRTHNYDEFICTFISMLAQEGMLANLVEQNISVRRRQGVSIGRLHKQRKPDRRKRSRPYKAKRQ
For B1, the binding result is reported as “binds”.
